{"source": "the supplement of paper PMC4604168 (melanoma cell lines)", "note": "The list shows a part of the results. Many values rest on one well or one pass, so single values are uncertain.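 The apoptosis fraction was the count of cleaved-PARP antibody-stained nuclei relative to all DNA-stained nuclei, imaged in 1,536-well plates. Screening doses were set so most cells survived, and baseline and induced cleaved-PARP levels vary greatly across cell lines.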", "data": [{"tested_on": "MZ2-MEL", "assay": "cleaved PARP positive nuclei fraction relative to DMSO control; melanoma cells; higher = more apoptosis", "conditions": "library dose: low library concentration; 72 h", "units": {"cleaved PARP positive nuclei fraction": "%"}, "values": [{"smiles": "NC1(c2ccc(-c3nc4ccn5c(=O)[nH]nc5c4cc3-c3ccccc3)cc2)CCC1", "note": "+ O=C(Oc1ccc([N+](=O)[O-])cc1)N1CCC(C(O)(c2ccc3c(c2)OCO3)c2ccc3c(c2)OCO3)CC1 [JZL184] (first compound 0.4 µM, partner dose 1 µM)", "cleaved PARP positive nuclei fraction": 85.5}, {"smiles": "COc1ccc(C2=N[C@@H](c3ccc(Cl)cc3)[C@@H](c3ccc(Cl)cc3)N2C(=O)N2CCNC(=O)C2)c(OC(C)C)c1", "note": "[Nutlin-3] + C/C(O)=C(\\C#N)C(=O)Nc1cc(Br)ccc1Br [LFM-A13] (first compound 0.1 µM, partner dose 2 µM)", "cleaved PARP positive nuclei fraction": 127}, {"smiles": "O=C(/C=C/c1cccnc1)NCCCCC1CCN(C(=O)c2ccccc2)CC1", "note": "+ Cc1cc(SCc2sc(-c3ccc(C(F)(F)F)c(F)c3)nc2C)ccc1OCC(=O)O [GW0742] (first compound 0.01 µM, partner dose 2 µM)", "cleaved PARP positive nuclei fraction": 414}, {"smiles": "C[As](C)SC[C@H](NC(=O)CC[C@H](N)C(=O)O)C(=O)NCC(=O)O", "note": "[Darinaparsin] + NC(=O)Nc1cc(-c2cccc(F)c2)sc1C(=O)N[C@H]1CCCNC1 [AZD7762] (first compound 0.4 µM, partner dose 0.02 µM)", "cleaved PARP positive nuclei fraction": 54.4}, {"smiles": "C[As](C)SC[C@H](NC(=O)CC[C@H](N)C(=O)O)C(=O)NCC(=O)O", "note": "[Darinaparsin] + C[C@@H]1CCN(C(=O)CC#N)C[C@@H]1N(C)c1ncnc2[nH]ccc12 [CP690550] (first compound 0.4 µM, partner dose 1 µM)", "cleaved PARP positive nuclei fraction": 49.4}, {"smiles": "C[C@]1(O)C[C@@H](c2nc(-c3ccc4ccc(-c5ccccc5)nc4c3)c3c(N)nccn32)C1", "note": "+ C/C(O)=C(\\C#N)C(=O)Nc1cc(Br)ccc1Br [LFM-A13] (first compound 0.4 µM, partner dose 2 µM)", "cleaved PARP positive nuclei fraction": 165}, {"smiles": "N.N.[Cl][Pt][Cl]", "note": "[cisplatin] + Cc1cc([N+](=O)[O-])ccc1NS(=O)(=O)c1cc(Cl)ccc1Cl [FH535] (first compound 1.6 µM, partner dose 1 µM)", "cleaved PARP positive nuclei fraction": 165}, {"smiles": "Cn1cc(C2=C(c3cn(C4CCN(Cc5ccccn5)CC4)c4ccccc34)C(=O)NC2=O)c2ccccc21", "note": "[Enzastaurin] + O=C1NC(=O)/C(=C/c2ccc(-c3ccc(F)cc3O)o2)S1 [AS252424] (first compound 0.8 µM, partner dose 1 µM)", "cleaved PARP positive nuclei fraction": 71.9}, {"smiles": "C=CCNC1=C2C[C@@H](C)C[C@H](OC)[C@H](O)[C@@H](C)/C=C(\\C)[C@H](OC(N)=O)[C@@H](OC)/C=C\\C=C(/C)C(=O)NC(=CC1=O)C2=O", "note": "[Tanespimycin] + Cc1cc(SCc2sc(-c3ccc(C(F)(F)F)c(F)c3)nc2C)ccc1OCC(=O)O [GW0742] (first compound 0.002 µM, partner dose 2 µM)", "cleaved PARP positive nuclei fraction": 164}, {"smiles": "O=C(O)c1ccc2c(c1)nc(Nc1cccc(Cl)c1)c1ccncc12", "note": "+ O=C(Oc1ccc([N+](=O)[O-])cc1)N1CCC(C(O)(c2ccc3c(c2)OCO3)c2ccc3c(c2)OCO3)CC1 [JZL184] (first compound 0.4 µM, partner dose 1 µM)", "cleaved PARP positive nuclei fraction": 149}, {"smiles": "N.N.[Cl][Pt][Cl]", "note": "[cisplatin] + Cc1cc(N2CCOCC2)cc2[nH]c(-c3c(NC[C@@H](O)c4cccc(Cl)c4)cc[nH]c3=O)nc12 [BMS536924] (first compound 1.6 µM, partner dose 0.2 µM)", "cleaved PARP positive nuclei fraction": 284}, {"smiles": "CC1(C)CCC(c2ccc(Cl)cc2)=C(CN2CCN(c3ccc(C(=O)NS(=O)(=O)c4ccc(N[C@H](CCN5CCOCC5)CSc5ccccc5)c(S(=O)(=O)C(F)(F)F)c4)cc3)CC2)C1", "note": "+ O=C(Oc1ccc([N+](=O)[O-])cc1)N1CCC(C(O)(c2ccc3c(c2)OCO3)c2ccc3c(c2)OCO3)CC1 [JZL184] (first compound 0.4 µM, partner dose 1 µM)", "cleaved PARP positive nuclei fraction": 244}, {"smiles": "Cc1cc(Nc2cc(N3CCN(C)CC3)nc(/C=C/c3ccccc3)n2)n[nH]1", "note": "+ C/C(O)=C(\\C#N)C(=O)Nc1cc(Br)ccc1Br [LFM-A13] (first compound 0.04 µM, partner dose 2 µM)", "cleaved PARP positive nuclei fraction": 99.4}, {"smiles": "N.N.[Cl][Pt][Cl]", "note": "[cisplatin] + OCCn1cc(-c2cnc3nnn(Cc4ccc5ncccc5c4)c3n2)cn1 [PF04217903] (first compound 1.6 µM, partner dose 1 µM)", "cleaved PARP positive nuclei fraction": 121}]}]}
